From patent publication US7517658B2, “Methods for preparing compositions using a SNORF33 receptor” (H. Lundbeck A/S, priority 1999, dated 2009)

Chains of the proteins cited; added tags and fusions are not shown.
UniProt Q96RJ0, whole entry: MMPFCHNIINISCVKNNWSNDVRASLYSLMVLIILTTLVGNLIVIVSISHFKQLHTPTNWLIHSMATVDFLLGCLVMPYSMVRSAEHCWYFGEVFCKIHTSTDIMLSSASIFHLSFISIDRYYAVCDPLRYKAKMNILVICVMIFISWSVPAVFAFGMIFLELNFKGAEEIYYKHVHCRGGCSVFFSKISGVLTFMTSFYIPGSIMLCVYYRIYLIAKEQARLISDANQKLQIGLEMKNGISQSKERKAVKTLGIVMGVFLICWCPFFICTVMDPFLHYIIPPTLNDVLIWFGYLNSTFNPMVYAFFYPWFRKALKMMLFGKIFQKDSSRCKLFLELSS
UniProt Q923Y8, whole entry: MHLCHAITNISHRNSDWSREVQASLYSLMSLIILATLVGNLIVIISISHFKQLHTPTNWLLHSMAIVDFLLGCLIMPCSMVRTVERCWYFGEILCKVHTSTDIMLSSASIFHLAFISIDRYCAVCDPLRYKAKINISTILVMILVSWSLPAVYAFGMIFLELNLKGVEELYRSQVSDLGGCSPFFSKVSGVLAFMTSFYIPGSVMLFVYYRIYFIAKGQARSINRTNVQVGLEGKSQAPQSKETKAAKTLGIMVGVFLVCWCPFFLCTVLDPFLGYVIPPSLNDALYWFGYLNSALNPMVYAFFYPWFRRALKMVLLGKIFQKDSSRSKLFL

Key:
human SNORF33 = human SNORF33 (Homo sapiens, UniProt Q96RJ0); assay: [3H]-TYR binding (saturation and displacement) to human SNORF33 COS-7 membranes; conditions: read-out: Kd, saturation binding, tested as the radiolabelled form
mouse SNORF33 = mouse SNORF33 (Mus musculus, UniProt Q923Y8); assay: [3H]-TYR binding (saturation and displacement) to mouse SNORF33 COS-7 membranes; conditions: read-out: Kd, saturation binding, tested as the radiolabelled form

NCCc1ccc(O)cc1
Kd (human SNORF33): 27.9 nM and 11.8 nM
Kd (mouse SNORF33): 16.2 nM and 7.3 nM

A number of entries come with more than one value. This list holds those alone. The source may hold further records. Values given together differ, and nothing given here explains why; dose, time, organism, isomer or construct need not be as stated for each record.
